This is one part of the list.
The targets below were run with Cc1cc(Nc2cc(N3CCN(C)CC3)nc(Sc3ccc(NC(=O)C4CC4)cc3)n2)n[nH]1 [tozasertib] (assay: log2 fold change, soluble protein after heating vs DMSO (PISA); higher = thermal stabilisation; K562 cells, 10 uM, 30 min; active = over 0.2 and 3.5 SD of the protein, either way, in both replicates (recomputed)).
Procedure, shortened: (§1)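 Aliquots of K562 cells (2×10^6 cells/mL) treated with 10 μM compound for 30 min were heated for 3 min over 48°C-58°C. After pooling and extraction in PBS with 0.5% NP-40 at 4°C, soluble protein from a 21,000xg, 90 min spin was quantified by TMTpro 16plex LC-MS/MS with channel sums equalised. Thermal stability is expressed against control samples, from duplicates, as a log2 fold change.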

Sequences of proteins named here, by UniProt entry; tags and fusion partners are left off. A change or cut given only in a name is not applied to a line headed by its entry.
UniProt Q9NUP1: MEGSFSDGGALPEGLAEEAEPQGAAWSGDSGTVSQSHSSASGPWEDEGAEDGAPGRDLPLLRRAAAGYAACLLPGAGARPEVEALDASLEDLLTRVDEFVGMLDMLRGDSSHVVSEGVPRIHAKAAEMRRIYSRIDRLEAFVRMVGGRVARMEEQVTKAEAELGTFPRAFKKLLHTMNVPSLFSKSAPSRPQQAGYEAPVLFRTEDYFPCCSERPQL
UniProt Q07817, whole entry, looked up: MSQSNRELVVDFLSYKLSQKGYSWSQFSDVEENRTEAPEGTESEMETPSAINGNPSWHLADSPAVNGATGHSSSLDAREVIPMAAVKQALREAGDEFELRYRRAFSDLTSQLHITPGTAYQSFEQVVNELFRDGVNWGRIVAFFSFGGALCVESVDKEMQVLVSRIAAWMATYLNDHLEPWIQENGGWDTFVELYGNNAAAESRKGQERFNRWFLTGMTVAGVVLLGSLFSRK
UniProt Q8WXE1: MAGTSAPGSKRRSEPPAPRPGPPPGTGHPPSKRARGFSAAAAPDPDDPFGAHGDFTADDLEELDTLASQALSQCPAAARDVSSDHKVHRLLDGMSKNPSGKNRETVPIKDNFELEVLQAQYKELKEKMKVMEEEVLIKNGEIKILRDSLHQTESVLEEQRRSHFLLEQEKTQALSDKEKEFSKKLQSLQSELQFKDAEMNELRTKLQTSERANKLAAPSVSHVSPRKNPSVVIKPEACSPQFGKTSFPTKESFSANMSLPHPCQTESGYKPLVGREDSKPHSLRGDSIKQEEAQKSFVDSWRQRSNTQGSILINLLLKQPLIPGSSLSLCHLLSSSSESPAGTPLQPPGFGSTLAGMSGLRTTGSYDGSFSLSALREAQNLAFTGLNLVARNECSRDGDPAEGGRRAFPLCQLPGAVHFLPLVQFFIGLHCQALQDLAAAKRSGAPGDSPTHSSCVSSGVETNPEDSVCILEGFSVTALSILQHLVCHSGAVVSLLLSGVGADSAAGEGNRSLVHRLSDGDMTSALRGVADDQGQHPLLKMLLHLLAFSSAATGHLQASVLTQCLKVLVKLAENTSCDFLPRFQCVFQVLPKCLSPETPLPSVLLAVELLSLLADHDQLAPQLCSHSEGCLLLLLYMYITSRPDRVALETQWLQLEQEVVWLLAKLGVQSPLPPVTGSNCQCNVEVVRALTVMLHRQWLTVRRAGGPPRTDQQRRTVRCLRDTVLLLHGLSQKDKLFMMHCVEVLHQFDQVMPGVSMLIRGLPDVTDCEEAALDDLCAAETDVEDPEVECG
UniProt P53004: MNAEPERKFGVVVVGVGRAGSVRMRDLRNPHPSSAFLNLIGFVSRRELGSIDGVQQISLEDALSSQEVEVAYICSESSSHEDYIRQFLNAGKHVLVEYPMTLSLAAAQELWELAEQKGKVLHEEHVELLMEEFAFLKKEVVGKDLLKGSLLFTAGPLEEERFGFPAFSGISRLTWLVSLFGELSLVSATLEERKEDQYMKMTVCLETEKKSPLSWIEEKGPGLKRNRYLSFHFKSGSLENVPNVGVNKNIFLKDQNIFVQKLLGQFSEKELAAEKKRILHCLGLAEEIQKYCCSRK
UniProt Q9NWV8, whole entry, looked up: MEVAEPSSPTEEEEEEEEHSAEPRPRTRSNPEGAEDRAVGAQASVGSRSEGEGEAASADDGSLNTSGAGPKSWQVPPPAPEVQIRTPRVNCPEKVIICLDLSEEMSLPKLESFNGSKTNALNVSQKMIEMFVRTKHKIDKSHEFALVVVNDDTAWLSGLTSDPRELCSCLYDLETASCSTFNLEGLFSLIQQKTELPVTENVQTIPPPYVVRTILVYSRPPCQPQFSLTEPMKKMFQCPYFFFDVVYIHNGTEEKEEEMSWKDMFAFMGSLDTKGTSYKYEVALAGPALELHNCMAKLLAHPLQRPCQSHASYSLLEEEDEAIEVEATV
UniProt P12694: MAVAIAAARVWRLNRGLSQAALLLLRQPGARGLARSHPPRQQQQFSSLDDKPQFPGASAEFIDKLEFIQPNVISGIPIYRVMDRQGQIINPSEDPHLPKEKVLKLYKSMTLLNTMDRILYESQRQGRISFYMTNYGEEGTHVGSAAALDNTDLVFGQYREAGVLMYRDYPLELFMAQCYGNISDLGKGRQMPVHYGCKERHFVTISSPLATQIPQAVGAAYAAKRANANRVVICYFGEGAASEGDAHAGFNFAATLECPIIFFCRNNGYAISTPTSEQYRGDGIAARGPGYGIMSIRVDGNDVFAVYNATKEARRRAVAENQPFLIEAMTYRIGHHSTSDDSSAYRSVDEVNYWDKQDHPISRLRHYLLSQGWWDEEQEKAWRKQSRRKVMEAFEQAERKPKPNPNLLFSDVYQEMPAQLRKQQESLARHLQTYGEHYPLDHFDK
UniProt O95817, whole entry, looked up: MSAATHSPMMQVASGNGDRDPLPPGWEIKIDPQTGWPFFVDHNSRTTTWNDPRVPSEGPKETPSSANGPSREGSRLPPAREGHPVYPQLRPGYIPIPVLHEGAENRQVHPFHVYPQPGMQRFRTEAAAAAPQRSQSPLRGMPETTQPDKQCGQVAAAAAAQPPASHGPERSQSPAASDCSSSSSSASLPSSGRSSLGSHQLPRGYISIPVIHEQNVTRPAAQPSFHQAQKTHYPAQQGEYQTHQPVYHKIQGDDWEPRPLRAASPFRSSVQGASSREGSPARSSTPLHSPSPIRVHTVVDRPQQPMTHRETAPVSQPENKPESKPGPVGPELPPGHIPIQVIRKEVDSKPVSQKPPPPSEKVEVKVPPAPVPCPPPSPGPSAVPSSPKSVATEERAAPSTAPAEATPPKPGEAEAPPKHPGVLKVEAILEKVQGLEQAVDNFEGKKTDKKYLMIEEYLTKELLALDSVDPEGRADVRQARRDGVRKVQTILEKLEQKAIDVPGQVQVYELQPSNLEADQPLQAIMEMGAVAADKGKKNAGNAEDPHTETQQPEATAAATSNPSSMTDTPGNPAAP
UniProt O15155: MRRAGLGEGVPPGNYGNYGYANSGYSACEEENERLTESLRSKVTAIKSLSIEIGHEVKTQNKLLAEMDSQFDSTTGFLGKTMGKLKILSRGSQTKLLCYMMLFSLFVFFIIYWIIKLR
UniProt O95861: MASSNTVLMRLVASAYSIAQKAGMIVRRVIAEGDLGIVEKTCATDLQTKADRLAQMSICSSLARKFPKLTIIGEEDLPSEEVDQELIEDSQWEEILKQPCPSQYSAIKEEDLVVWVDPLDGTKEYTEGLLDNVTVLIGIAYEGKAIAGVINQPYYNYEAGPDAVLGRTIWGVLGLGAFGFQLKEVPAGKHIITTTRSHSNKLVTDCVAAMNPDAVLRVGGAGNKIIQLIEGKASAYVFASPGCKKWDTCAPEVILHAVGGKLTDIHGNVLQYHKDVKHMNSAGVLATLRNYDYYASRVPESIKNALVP
UniProt P46736, whole entry, looked up: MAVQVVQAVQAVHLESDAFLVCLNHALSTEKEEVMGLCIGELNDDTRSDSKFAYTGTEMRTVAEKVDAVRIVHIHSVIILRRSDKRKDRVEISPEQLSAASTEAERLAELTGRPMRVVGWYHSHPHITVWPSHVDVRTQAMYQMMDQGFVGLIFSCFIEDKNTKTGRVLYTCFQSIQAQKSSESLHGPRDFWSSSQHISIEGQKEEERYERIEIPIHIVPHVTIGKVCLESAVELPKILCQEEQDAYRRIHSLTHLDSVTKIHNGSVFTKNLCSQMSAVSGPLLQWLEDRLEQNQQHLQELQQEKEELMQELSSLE
UniProt Q13867: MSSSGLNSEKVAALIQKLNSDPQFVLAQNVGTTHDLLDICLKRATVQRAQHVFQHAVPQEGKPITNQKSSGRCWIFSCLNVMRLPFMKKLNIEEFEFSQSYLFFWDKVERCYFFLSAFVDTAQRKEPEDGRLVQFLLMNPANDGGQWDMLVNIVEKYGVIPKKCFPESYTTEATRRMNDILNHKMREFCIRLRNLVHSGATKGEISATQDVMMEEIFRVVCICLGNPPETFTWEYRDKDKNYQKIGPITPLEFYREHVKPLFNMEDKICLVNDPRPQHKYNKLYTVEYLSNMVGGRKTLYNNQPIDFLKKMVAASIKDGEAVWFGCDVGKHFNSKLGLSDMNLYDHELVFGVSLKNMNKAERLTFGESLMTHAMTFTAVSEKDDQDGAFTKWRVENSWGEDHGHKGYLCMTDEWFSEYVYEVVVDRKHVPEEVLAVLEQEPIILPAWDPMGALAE
UniProt Q53S33: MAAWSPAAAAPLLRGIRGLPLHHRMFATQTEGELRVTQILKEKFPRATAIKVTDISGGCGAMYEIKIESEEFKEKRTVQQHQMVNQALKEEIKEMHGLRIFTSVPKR
UniProt Q9BXK5, whole entry, looked up: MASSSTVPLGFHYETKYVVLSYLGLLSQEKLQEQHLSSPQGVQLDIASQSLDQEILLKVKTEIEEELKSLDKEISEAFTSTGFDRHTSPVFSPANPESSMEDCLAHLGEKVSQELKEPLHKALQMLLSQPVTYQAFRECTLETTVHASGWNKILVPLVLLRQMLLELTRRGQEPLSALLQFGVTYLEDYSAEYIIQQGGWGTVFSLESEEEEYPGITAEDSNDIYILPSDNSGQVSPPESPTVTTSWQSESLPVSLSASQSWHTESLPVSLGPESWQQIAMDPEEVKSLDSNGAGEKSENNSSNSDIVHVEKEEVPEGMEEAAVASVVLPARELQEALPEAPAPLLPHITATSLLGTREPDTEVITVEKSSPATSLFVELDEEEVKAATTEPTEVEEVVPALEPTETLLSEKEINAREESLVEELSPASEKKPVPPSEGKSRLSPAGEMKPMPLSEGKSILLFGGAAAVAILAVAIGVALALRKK
UniProt Q5VW32: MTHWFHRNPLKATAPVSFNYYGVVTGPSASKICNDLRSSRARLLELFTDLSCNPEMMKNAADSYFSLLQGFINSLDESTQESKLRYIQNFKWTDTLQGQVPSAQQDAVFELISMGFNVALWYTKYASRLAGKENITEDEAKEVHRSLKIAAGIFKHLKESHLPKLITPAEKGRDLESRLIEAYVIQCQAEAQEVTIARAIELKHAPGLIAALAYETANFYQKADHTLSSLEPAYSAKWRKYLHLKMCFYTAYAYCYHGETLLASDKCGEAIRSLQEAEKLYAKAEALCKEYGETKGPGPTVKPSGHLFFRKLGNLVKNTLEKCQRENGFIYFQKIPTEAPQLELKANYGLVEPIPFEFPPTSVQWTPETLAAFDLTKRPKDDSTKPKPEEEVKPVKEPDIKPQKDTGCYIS
UniProt Q96GS4: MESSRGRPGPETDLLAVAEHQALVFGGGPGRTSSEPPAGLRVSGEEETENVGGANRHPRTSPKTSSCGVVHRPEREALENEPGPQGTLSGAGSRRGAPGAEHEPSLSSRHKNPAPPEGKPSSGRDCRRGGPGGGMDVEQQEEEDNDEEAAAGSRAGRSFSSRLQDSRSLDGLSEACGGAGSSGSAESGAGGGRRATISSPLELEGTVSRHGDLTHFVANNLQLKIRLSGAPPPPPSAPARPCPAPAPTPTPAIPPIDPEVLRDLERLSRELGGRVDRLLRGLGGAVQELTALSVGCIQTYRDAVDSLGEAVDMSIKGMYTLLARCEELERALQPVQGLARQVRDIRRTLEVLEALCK
UniProt P46379: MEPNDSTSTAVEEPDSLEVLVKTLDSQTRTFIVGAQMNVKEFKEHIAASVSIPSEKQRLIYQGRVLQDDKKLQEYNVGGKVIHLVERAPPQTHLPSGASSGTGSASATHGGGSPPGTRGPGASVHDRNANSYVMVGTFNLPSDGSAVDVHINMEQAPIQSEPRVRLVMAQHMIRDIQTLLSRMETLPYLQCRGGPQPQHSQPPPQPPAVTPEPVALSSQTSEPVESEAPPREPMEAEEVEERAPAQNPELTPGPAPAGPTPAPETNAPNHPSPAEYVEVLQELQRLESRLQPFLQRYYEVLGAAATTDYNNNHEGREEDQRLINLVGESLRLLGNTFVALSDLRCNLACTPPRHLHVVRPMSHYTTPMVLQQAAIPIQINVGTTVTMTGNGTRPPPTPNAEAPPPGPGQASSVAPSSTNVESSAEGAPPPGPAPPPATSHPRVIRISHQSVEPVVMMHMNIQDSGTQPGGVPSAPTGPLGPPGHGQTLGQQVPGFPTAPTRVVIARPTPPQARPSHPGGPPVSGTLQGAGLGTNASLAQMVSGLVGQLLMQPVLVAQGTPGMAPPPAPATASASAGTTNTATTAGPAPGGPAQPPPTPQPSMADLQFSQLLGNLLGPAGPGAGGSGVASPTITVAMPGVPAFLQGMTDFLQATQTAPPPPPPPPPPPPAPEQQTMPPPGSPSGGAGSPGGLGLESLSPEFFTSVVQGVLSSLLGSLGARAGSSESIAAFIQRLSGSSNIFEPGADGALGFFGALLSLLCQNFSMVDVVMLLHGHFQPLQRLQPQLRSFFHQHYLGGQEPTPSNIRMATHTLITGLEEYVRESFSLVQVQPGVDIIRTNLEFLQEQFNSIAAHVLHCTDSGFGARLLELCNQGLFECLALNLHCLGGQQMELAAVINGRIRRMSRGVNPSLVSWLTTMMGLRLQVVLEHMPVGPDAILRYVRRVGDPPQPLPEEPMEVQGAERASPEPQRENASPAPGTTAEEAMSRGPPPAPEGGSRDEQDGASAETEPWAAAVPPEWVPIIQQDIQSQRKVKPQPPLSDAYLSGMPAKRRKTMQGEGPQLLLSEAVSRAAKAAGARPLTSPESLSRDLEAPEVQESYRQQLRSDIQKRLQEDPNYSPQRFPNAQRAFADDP

log2 fold change, inactive:
BRAT1 (UniProt Q6PJG6) 0.024
BLOC1S4 (UniProt Q9NUP1) -0.051
ATXN2 (UniProt Q99700) -0.053
BCL2L1 (UniProt Q07817) -0.032
ATRIP (UniProt Q8WXE1) 0.057
B4GALT3 (UniProt O60512) 0.012
BLVRA (UniProt P53004) -0.079
BICD2 isoform 2 (UniProt Q8TD16) 0.098
BABAM1 (UniProt Q9NWV8) -0.015
BAX isoform 2 (UniProt Q07812) 0.022
BCKDHA (UniProt P12694) 0.003
BNIP2 (UniProt J3KN59) 0.017
BOLA2 (UniProt Q9H3K6) 0.122
BIRC2 (UniProt Q13490) -0.049
BAG3 (UniProt O95817) -0.021
BAHCC1 (UniProt Q9P281) -0.096
BMS1 (UniProt Q14692) 0.032
BCKDK (UniProt O14874) 0.004
BET1 (UniProt O15155) 0.019
BPNT1 (UniProt O95861) 0.016
BLOC1S5 (UniProt Q8TDH9) 0.045
B3GAT3 (UniProt O94766) 0.007
BIRC6 (UniProt Q9NR09) 0.032
BCS1L (UniProt Q9Y276) -0.031
BRCC3 (UniProt P46736) -0.022
BCL2L2 isoform 2 (UniProt Q92843) 0.046
BLMH (UniProt Q13867) 0.017
BOLA3 (UniProt Q53S33) -0.023
BCL2L13 (UniProt Q9BXK5) 0.019
BACH1 (UniProt O14867) 0.018
BLOC1S1 (UniProt P78537) -0.013
BCAS2 (UniProt O75934) 0.133
AZGP1 (UniProt P25311) 0.109
BAK1 (UniProt Q16611) -0.081
BROX (UniProt Q5VW32) 0.066
BORCS6 (UniProt Q96GS4) 0.064
BAG6 isoform 3 (UniProt P46379) 0.106

What follows are targets tested with Cc1cc(SCc2sc(-c3ccc(C(F)(F)F)cc3)nc2C)ccc1OCC(=O)O in the same assay as above.
Procedure, shortened: as §1

log2 fold change, inactive:
BRAT1 (UniProt Q6PJG6) 0.082
BLOC1S4 (UniProt Q9NUP1) -0.013
ATXN2 (UniProt Q99700) -0.046
BCL2L1 (UniProt Q07817) 0
ATRIP (UniProt Q8WXE1) 0.033
B4GALT3 (UniProt O60512) 0.181
BLVRA (UniProt P53004) 0.003
BICD2 isoform 2 (UniProt Q8TD16) 0.05
BABAM1 (UniProt Q9NWV8) -0.051
BAX isoform 2 (UniProt Q07812) -0.025
BCKDHA (UniProt P12694) 0.028
BNIP2 (UniProt J3KN59) 0.038
BOLA2 (UniProt Q9H3K6) 0.056
BIRC2 (UniProt Q13490) 0.013
BAG3 (UniProt O95817) -0.05
BAHCC1 (UniProt Q9P281) -0.158
BMS1 (UniProt Q14692) 0.048
BCKDK (UniProt O14874) -0.033
BET1 (UniProt O15155) 0.026
BPNT1 (UniProt O95861) -0.008
BLOC1S5 (UniProt Q8TDH9) -0.058
B3GAT3 (UniProt O94766) 0.018
BIRC6 (UniProt Q9NR09) 0.03
BCS1L (UniProt Q9Y276) -0.012
BRCC3 (UniProt P46736) -0.087
BCL2L2 isoform 2 (UniProt Q92843) 0.049
BLMH (UniProt Q13867) -0.087
BOLA3 (UniProt Q53S33) -0.022
BCL2L13 (UniProt Q9BXK5) -0.018
BACH1 (UniProt O14867) -0.043
BLOC1S1 (UniProt P78537) -0.03
BCAS2 (UniProt O75934) 0.075
AZGP1 (UniProt P25311) -0.353
BAK1 (UniProt Q16611) -0.077
BROX (UniProt Q5VW32) 0.087
BORCS6 (UniProt Q96GS4) -0.011
BAG6 isoform 3 (UniProt P46379) 0.047
